Results deposited as PubChem BioAssay AID504774 (Drosophila RNAi Screening Center, 2011)

Test: 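Knock-downs that shift viability of MMS-exposed cells relative to untreated ones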 (primary screen)
Cells: Drosophila Kc167 cells
Reagents: long dsRNA against Drosophila genes, about 0.25 µg dsRNA per well
Timing: about 6 days: 3 days knock-down, then 3 days with or without MMS
Challenge: methyl methanesulphonate 0.004% (w/v) for 3 days after knock-down
Detection: 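Viability in wells given MMS, read as ATP luminescence, normalised by quantiles plate by plate and averaged across replicates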
Direction: mean viability with MMS: higher = more surviving cells after MMS
The screen tested about 23,000 reagents; below is an unselected part of those that have a named target and a result. 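Values are quantile-normalised luminescence on an arbitrary scale; higher means more cells surviving MMS.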 A plus sign joins genes that one reagent is predicted to hit. Not all columns of the deposit are shown. Reagent sequences are not shown.

target	amplicon	mean viability with MMS
RfC4	DRSC08691	3.60e6
Cand1	DRSC01992	3.58e6
NSD	DRSC15691	3.47e6
Pxn	DRSC08685	3.29e6
msl-1	DRSC03573	3.55e6
CG13856	DRSC14706	3.44e6
sti	DRSC09739	3.50e6
sti	DRSC09740	3.48e6
p38a	DRSC16743	3.74e6
Syx6	DRSC07032	3.54e6
CG31922	DRSC21703	3.44e6
CG10321	DRSC04061	1.65e6
Gr36b	DRSC21637	3.64e6
CG17598	DRSC20636	3.42e6
Drak	DRSC19778	3.55e6
Drak	DRSC23298	3.75e6
CG13733	DRSC10061	3.52e6
CG10898	DRSC14279	3.62e6
Gbs-70E	DRSC11055	3.62e6
CG12402	DRSC14508	3.48e6
CG12470	DRSC18620	3.53e6
CG31268	DRSC13203	3.39e6
Gcna	DRSC18553	3.74e6
wuho	DRSC18101	3.60e6
CG15536	DRSC15072	3.71e6
CG15536	DRSC22844	3.51e6
CG13148	DRSC06275	3.58e6
Edg84A	DRSC12594	3.61e6
CG13404	DRSC19536	3.56e6
ArgRS	DRSC20138	3.36e6
CG14715	DRSC14938	3.66e6
Ubc10	DRSC07568	3.45e6
Ror	DRSC03414	3.54e6
pck	DRSC18565	3.43e6
rtet	DRSC14160	3.61e6
Hpd	DRSC11670	3.62e6
CG4022	DRSC10395	3.41e6
CG33286	DRSC11691	3.56e6
CG13675	DRSC08908	3.28e6
CG13675	DRSC10034	2.66e6
CG13675	DRSC23124	3.68e6
MagR	DRSC20092	3.42e6
CG8248	DRSC07124	3.46e6
ect	DRSC10675	3.67e6
ect	DRSC11343	3.48e6
ect	DRSC22357	3.44e6
CG8838	DRSC00712	3.56e6
p38c	DRSC22939	3.40e6
D	DRSC11132	3.59e6
TotF	DRSC02305	3.48e6
CG4074 + CG4186	DRSC11753	3.77e6
PEK	DRSC12361	3.91e6
Prosalpha6	DRSC03401	3.12e6
BG642163	DRSC00342	3.60e6
BG642163	DRSC00343	3.83e6
CG13896	DRSC08366	3.43e6
vnd	DRSC17360	3.53e6
vnd	DRSC18849	3.64e6
vnd	DRSC22487	3.68e6
trr	DRSC18845	3.33e6
trr	DRSC23290	3.13e6
Ir64a	DRSC09759	3.40e6
Ir64a	DRSC09760	3.67e6
yellow-h	DRSC17141	3.58e6
CG8008	DRSC07053	3.55e6
Ubqn	DRSC19581	3.33e6
spz6	DRSC04533	3.11e6
CG4949	DRSC19926	3.97e6

6 neighbouring records already listed, quoted:
target	amplicon	mean viability with MMS
Prosalpha6	DRSC03401	3.12e6
BG642163	DRSC00342	3.60e6
BG642163	DRSC00343	3.83e6
CG13896	DRSC08366	3.43e6
vnd	DRSC17360	3.53e6
vnd	DRSC18849	3.64e6
